Our source for the binding values is PMC6160385.

Amino acid sequences for entries named in this document (tags omitted). A change or cut given only in a name is not applied to a line headed by its entry. Chains listed by the source or under a name are the forms on record and can include a tag or linker.
Flag-β-TRCP (Q9Y297, form named): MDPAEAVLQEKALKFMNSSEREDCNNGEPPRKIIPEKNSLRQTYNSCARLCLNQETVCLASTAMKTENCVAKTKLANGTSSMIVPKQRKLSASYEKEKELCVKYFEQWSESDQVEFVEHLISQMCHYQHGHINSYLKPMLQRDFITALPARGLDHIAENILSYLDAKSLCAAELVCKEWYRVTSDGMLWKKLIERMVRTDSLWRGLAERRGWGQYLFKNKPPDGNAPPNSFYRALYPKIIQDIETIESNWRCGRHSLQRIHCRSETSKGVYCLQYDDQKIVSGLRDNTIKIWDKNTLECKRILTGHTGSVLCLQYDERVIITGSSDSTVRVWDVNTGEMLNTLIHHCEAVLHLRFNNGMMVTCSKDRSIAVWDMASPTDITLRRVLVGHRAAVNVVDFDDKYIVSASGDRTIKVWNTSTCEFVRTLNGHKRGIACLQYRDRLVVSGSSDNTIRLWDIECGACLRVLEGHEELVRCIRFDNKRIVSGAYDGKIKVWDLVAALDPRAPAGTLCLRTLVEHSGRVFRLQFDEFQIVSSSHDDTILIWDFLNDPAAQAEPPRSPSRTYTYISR
UniProt Q9ULT6: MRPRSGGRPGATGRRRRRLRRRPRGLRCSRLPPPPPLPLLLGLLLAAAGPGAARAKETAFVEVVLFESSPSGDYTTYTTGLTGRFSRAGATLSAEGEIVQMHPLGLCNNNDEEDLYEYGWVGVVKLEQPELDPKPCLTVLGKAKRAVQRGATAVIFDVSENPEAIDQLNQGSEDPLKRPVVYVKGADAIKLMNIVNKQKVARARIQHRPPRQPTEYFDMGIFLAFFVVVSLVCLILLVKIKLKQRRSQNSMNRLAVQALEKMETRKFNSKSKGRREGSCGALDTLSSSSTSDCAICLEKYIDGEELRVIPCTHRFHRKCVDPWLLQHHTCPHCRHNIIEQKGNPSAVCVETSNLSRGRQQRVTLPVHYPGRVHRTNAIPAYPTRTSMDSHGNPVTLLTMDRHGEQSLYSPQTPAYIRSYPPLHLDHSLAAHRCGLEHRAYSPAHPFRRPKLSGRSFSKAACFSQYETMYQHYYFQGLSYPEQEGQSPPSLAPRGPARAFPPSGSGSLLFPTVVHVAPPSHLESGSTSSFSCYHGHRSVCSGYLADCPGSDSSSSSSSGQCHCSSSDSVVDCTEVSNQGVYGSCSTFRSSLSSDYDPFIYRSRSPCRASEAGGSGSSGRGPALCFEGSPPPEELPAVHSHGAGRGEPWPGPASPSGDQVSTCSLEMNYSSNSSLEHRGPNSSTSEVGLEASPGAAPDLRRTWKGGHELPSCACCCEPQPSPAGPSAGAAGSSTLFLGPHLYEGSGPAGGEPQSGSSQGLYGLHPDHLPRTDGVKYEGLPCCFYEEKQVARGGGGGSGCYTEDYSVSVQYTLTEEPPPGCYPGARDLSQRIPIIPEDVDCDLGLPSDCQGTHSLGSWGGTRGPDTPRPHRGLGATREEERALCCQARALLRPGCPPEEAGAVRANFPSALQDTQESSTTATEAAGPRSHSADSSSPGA

No constants are given. Whether binding was seen depends on the method and setting. In cells and extracts the contact can be indirect. A result given as binding can be weak or reduced; the word gives no strength.

This experiment has as its target Flag-β-TRCP (UniProt Q9Y297). The experiment in a line: co-IP; HeLa cells transfected with ZNRF3 wild type or degron mutants and β-TRCP; immunoblot of IP and WCL.

With “ZNRF3 with the SSG degron motif mutated (from UniProt Q9ULT6)”, the binding result is given as “no binding”. As for “ZNRF3 with the ESG degron motif mutated (from UniProt Q9ULT6)”, the entry is “binds”.
